# Assay results as given in the supplement of paper PMC11732987, “Enantioselective OTUD7B fragment discovery through chemoproteomics screening and high-throughput optimisation” (Communications Chemistry, 2025).
# The chains behind the UniProt entries cited, without tags or fusion partners. Where a name states a change or a piece, a line headed by the entry shows the natural chain unless it says otherwise. Residues count along the entry.
# UniProt O60318: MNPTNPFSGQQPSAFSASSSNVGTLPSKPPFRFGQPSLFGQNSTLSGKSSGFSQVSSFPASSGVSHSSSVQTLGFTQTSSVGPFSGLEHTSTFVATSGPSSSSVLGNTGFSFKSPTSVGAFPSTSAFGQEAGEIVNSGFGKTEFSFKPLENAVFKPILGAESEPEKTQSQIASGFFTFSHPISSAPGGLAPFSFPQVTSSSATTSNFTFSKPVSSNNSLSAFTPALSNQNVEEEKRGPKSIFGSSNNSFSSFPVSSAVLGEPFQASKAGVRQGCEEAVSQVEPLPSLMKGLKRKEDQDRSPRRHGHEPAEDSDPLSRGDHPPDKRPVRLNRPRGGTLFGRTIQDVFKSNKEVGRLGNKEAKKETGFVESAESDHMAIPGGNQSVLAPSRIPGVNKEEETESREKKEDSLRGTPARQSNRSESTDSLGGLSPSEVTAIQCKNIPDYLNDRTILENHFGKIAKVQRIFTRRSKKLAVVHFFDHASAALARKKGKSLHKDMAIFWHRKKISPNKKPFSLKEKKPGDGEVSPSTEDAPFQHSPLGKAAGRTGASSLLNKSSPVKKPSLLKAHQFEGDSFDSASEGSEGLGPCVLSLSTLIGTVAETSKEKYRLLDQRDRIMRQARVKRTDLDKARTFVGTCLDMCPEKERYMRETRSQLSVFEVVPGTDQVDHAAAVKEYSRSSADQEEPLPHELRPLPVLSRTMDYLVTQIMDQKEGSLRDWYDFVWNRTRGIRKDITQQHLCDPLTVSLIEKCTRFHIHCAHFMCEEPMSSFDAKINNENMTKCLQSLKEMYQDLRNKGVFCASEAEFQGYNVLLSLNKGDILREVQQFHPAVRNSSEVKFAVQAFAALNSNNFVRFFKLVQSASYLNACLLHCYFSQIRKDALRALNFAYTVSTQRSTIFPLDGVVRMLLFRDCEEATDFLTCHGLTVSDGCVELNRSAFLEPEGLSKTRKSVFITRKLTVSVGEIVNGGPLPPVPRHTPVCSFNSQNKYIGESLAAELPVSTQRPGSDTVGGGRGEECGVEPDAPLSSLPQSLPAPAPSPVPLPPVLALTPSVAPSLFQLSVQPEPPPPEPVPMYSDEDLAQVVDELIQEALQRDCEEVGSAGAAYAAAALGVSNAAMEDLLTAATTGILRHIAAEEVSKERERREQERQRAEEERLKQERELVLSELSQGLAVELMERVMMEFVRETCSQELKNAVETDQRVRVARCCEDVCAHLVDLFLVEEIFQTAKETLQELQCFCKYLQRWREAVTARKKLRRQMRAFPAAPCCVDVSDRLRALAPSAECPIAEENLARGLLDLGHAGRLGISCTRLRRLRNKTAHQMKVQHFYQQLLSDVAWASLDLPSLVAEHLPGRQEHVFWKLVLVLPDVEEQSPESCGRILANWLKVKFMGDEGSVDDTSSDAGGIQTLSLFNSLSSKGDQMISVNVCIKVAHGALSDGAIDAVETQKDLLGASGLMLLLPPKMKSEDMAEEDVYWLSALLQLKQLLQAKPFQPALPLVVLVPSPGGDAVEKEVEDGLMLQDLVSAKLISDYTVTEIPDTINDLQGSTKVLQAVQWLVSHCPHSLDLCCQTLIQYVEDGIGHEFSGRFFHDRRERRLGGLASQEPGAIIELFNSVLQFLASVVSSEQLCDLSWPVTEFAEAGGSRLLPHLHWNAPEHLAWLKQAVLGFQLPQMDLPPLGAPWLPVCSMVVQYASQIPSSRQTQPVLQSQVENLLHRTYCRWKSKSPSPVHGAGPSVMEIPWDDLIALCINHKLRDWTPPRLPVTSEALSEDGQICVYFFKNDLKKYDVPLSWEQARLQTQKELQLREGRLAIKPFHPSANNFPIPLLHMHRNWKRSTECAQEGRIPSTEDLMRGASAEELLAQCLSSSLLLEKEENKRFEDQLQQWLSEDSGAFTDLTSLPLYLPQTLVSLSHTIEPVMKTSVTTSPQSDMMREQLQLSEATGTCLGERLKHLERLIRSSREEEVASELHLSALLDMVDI
# UniProt Q9UPY8, whole entry, looked up: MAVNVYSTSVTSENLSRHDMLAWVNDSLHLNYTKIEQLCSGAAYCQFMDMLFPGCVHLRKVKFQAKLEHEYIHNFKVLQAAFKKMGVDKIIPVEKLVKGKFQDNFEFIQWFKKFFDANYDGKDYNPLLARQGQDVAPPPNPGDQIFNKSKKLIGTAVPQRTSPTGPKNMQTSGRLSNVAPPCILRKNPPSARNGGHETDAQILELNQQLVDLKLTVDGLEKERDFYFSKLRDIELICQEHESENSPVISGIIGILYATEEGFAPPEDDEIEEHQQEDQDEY
# UniProt Q9UIS9, 503-528: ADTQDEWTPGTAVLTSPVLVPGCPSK
# UniProt Q96L34: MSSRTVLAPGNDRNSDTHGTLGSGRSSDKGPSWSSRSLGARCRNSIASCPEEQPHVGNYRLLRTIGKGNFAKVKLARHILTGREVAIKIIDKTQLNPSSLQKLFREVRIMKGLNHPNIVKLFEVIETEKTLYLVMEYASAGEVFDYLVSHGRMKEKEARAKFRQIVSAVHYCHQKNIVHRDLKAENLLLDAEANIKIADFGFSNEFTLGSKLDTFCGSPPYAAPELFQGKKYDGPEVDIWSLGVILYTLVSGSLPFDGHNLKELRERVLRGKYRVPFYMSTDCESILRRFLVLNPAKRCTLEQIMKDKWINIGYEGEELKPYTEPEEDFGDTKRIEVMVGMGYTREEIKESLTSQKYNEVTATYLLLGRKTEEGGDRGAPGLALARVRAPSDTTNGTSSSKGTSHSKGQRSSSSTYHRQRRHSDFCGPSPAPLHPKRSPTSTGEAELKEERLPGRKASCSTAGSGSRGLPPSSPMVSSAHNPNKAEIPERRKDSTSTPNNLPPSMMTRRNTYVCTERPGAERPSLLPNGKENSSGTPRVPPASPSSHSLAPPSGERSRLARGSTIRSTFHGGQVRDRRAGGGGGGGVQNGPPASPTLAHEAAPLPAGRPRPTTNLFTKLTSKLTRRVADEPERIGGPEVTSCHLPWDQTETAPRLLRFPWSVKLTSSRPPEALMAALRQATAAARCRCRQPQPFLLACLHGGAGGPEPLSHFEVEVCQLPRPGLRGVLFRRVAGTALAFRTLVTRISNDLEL
# UniProt Q13257, whole entry, looked up: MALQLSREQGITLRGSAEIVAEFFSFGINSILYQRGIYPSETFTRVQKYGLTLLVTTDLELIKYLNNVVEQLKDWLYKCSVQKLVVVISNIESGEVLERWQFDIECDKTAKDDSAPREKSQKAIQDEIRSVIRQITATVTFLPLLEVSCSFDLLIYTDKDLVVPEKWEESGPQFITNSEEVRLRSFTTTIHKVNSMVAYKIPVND
# UniProt P31153, 103-125: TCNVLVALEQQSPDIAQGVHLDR
# UniProt P45983: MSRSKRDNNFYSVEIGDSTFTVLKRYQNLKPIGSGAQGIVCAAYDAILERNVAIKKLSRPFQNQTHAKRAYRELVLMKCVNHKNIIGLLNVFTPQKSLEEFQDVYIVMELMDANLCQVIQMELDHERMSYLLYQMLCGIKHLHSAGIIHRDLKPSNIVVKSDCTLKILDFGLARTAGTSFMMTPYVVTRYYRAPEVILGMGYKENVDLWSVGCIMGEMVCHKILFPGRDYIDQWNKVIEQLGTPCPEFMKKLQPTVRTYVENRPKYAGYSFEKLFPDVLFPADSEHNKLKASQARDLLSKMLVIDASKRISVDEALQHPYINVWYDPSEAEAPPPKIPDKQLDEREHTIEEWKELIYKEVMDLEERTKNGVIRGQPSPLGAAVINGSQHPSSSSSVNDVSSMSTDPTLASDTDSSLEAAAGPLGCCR
# UniProt P27448: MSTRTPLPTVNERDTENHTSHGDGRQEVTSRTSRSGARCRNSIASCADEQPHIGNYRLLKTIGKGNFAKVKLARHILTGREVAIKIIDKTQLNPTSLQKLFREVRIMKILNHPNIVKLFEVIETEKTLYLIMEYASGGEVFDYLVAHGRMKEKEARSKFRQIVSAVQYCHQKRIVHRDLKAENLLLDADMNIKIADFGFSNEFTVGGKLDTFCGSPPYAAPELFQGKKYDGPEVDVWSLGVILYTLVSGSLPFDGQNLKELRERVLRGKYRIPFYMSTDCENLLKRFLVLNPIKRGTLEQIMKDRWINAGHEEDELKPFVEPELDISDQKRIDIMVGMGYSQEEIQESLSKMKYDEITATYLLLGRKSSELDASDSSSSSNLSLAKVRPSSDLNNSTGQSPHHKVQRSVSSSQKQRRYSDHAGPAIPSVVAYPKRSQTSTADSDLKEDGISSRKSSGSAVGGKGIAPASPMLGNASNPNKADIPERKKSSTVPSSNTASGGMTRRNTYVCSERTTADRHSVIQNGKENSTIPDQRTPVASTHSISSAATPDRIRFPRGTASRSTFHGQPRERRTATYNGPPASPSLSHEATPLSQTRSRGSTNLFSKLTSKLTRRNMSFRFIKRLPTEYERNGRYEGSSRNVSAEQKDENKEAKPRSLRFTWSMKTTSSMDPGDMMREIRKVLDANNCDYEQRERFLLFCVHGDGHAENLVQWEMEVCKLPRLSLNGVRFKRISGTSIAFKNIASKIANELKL
# UniProt P33991, 197-216: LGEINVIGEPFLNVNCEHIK
# UniProt P49137, whole entry, looked up: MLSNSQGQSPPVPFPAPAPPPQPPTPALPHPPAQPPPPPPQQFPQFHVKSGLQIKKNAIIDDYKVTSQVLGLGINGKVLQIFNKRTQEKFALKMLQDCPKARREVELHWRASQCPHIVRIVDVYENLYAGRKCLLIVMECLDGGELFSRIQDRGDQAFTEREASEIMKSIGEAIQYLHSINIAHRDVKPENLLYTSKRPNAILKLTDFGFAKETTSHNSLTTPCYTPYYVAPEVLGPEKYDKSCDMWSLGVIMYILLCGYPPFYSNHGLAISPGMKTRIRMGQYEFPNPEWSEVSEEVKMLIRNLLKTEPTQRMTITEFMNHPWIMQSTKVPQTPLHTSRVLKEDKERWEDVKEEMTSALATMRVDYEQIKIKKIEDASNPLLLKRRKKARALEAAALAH
# UniProt Q32MZ4: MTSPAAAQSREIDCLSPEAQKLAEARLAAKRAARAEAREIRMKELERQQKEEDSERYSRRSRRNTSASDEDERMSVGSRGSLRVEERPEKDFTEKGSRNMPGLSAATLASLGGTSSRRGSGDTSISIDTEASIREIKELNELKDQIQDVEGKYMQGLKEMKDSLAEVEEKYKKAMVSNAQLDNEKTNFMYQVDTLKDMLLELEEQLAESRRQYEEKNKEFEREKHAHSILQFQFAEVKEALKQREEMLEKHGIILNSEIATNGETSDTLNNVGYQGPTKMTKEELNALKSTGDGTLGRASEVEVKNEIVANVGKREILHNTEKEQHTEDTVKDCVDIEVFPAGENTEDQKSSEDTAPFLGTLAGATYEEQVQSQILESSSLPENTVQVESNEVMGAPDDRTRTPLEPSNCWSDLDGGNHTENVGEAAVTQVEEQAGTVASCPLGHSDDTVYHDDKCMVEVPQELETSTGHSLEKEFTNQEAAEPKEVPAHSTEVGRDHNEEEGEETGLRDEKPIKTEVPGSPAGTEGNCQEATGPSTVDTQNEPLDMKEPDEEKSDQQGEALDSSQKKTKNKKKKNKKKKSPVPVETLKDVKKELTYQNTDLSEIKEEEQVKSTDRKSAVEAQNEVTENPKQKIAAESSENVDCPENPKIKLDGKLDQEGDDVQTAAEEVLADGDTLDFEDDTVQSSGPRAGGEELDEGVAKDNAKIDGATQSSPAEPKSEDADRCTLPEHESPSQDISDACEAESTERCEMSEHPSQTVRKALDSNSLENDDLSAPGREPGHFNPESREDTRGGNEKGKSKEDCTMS
# UniProt P20645: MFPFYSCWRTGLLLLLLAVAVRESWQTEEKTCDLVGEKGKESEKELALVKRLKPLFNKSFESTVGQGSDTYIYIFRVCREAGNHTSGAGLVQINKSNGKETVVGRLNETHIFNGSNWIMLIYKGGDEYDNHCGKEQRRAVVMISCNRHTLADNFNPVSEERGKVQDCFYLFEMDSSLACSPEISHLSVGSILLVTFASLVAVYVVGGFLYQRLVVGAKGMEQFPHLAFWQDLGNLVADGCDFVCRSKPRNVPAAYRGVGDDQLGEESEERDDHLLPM
# UniProt Q9H9A6: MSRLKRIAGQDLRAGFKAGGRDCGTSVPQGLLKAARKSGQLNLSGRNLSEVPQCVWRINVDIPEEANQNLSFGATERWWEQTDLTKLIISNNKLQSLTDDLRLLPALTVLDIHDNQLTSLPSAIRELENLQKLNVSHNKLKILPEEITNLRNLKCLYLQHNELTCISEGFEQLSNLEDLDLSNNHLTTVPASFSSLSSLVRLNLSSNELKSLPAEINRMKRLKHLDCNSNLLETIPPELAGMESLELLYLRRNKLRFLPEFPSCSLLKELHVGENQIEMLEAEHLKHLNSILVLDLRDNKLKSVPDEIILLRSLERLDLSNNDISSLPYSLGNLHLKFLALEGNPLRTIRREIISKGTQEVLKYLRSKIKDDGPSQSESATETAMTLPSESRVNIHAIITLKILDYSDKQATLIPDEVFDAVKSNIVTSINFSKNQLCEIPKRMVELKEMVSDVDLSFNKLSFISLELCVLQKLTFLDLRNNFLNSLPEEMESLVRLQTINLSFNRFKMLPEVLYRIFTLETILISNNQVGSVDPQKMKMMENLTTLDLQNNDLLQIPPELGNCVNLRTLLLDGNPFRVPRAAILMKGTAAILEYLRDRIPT
# The list shows a part of the results. The data scatter; read single values as rough.
# Compound: ClCC(=O)N[C@H]1CCCc2ccccc12
# Test: log2 mean competition ratio of IA-DTB cysteine labelling (DMSO/compound) (log2 ratio); higher = stronger cysteine engagement by compound
# Conditions: 50 µM; treatment time: 4 h; cell line lysate: HEK293T
# Experimental: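 IA-DTB competitive cysteine chemoproteomics in HEK293T RIPA lysate. Lysates were treated with compound 29 or 30 at 50 or 200 µM for 4 h, then IA-DTB (500 µM, 1 h), trypsin-digested, NeutrAvidin-enriched and analysed by diaPASEF. Competition ratio = intensity DMSO / intensity compound (n=4 treated, n=64 DMSO); binding: mean log2 CR ≥ 1 and p ≤ 0.05 plus QC filters. Target is the cysteine site.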
row,Target,log2 mean competition ratio
1,MCM3AP C981 (UniProt O60318),0.19
2,MACF1 C1522,-0.0273
3,MAPRE3 C182 (UniProt Q9UPY8),0.19
4,MCC C202 (UniProt P23508),-0.404
5,MAP4 C635,0.0443
6,LTA4H C147 (UniProt P09960),-0.27
7,LZTR1 C342 (UniProt Q8N653),0.142
8,MCAT C361 (UniProt Q8IVS2),0.083
9,MAP9 C239,-0.0704
10,MBD1 C525 (UniProt Q9UIS9),0.0117
11,MARK4 C459 (UniProt Q96L34),0.0769
12,MAD2L1 C106 (UniProt Q13257),-0.116
13,MCMBP C325 (UniProt Q9BTE3),0.252
14,MAP2K4 C266 (UniProt P45985),0.155
15,MACF1 C5049,0.0177
16,MCM3AP C1839 (UniProt O60318),-0.124
17,MAGEE1 C429,0.0442
18,MAT2A C104 (UniProt P31153),0.215
19,LRRC47 C249 (UniProt Q8N1G4),0.231

row,Target,log2 mean competition ratio
1,MAPK8 C245 (UniProt P45983),0.11
2,MARK3 C510 (UniProt P27448),0.111
3,MACF1 C5131,0.636
4,MCM4 C212 (UniProt P33991),-0.401
5,MCM10 C369 (UniProt Q7L590),-0.704
6,MATR3 C806 (UniProt P43243),-0.0345
7,LRPPRC C930,-0.194
8,MAPKAPK2 C114 (UniProt P49137),0.0882
9,LSS C636 (UniProt P48449),-0.625
10,MAP4K5 C505 (UniProt Q9Y4K4),0.29
11,LRRFIP1 C750 (UniProt Q32MZ4),0.0449
12,MCM3AP C1945 (UniProt O60318),0.412
13,LUC7L2 C348 (UniProt Q9Y383),0.0481
14,MARK4 C49 (UniProt Q96L34),-0.4
15,MAVS C46 (UniProt Q7Z434),0.587
16,M6PR C145 (UniProt P20645),0.421
17,LRRC40 C438 (UniProt Q9H9A6),0.118
18,MAP1A C2191 (UniProt P78559),1.03
19,MCM8 C235,0.372

# Same assay, conditions: 200 µM; treatment time: 4 h; cell line lysate: HEK293T
row,Target,log2 mean competition ratio
1,MCM3AP C981 (UniProt O60318),-0.172
2,MACF1 C1522,-0.269
3,MAPRE3 C182 (UniProt Q9UPY8),0.0135
4,MCC C202 (UniProt P23508),0.122
5,MAP4 C635,-0.00586
6,LTA4H C147 (UniProt P09960),0.146
7,LZTR1 C342 (UniProt Q8N653),-0.149
8,MCAT C361 (UniProt Q8IVS2),0.0304
9,MAP9 C239,-0.148
10,MBD1 C525 (UniProt Q9UIS9),0.184
11,MARK4 C459 (UniProt Q96L34),0.297
12,MAD2L1 C106 (UniProt Q13257),0.436
13,MCMBP C325 (UniProt Q9BTE3),0.0259
14,MAP2K4 C266 (UniProt P45985),0.31
15,MACF1 C5049,0.0486
16,MCM3AP C1839 (UniProt O60318),0.0856
17,MAGEE1 C429,-0.0959
18,MAT2A C104 (UniProt P31153),-0.339
19,LRRC47 C249 (UniProt Q8N1G4),-0.0798

row,Target,log2 mean competition ratio
1,MAPK8 C245 (UniProt P45983),0.176
2,MARK3 C510 (UniProt P27448),0.046
3,MACF1 C5131,-0.245
4,MCM4 C212 (UniProt P33991),-0.0331
5,MCM10 C369 (UniProt Q7L590),0.136
6,MATR3 C806 (UniProt P43243),-0.0531
7,LRPPRC C930,-0.29
8,MAPKAPK2 C114 (UniProt P49137),-0.314
9,LSS C636 (UniProt P48449),1.11
10,MAP4K5 C505 (UniProt Q9Y4K4),0.0219
11,LRRFIP1 C750 (UniProt Q32MZ4),0.144
12,MCM3AP C1945 (UniProt O60318),0.285
13,LUC7L2 C348 (UniProt Q9Y383),0.0924
14,MARK4 C49 (UniProt Q96L34),0.0737
15,MAVS C46 (UniProt Q7Z434),-0.0793
16,M6PR C145 (UniProt P20645),0.226
17,LRRC40 C438 (UniProt Q9H9A6),-0.121
18,MAP1A C2191 (UniProt P78559),0.227
19,MCM8 C235,-0.0339
